PubChem BioAssay AID504808 – Drosophila RNAi Screening Center | 2011
In all, the deposit lists about 21,000 reagents; shown is a random part of those that have a named target and a result. Of all reagents, 18 (0.084%) got an active call. 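Raw counts without plate normalisation, one of two replicates; the ratio scores behind the calls were not deposited.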 Not given: the amount of reagent, the time to read-out.

Aim: 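Chromatin factors that keep E2F targets switched off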 (primary screen)
System: Drosophila S2 cells
Reagents: long dsRNA against Drosophila genes
Measured: 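Dual luciferase plate measurements; E2F-specific signal taken as firefly over Renilla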
Reading the numbers: E2F firefly: higher = more E2F reporter activity; Renilla normaliser: higher = more normaliser reporter signal
Active means: 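a knock-down counted as active when the firefly/Renilla E2F signal rose above 50%, a threshold chosen arbitrarily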

For CG17049 (retired record) [DRSC06650] the deposit lists E2F firefly, rep 1 = 1.07e5; Renilla normaliser, rep 1 = 5083; inactive. Against kar [DRSC14496], the values are E2F firefly, rep 1 = 73500; Renilla normaliser, rep 1 = 3452; inactive. CG10301 [DRSC14226] scored E2F firefly, rep 1 = 1.09e5; Renilla normaliser, rep 1 = 5589; inactive. Knock-down of CG33290 [DRSC11493] came out at: E2F firefly, rep 1 = 95440; Renilla normaliser, rep 1 = 3853; inactive. CG10184 [DRSC14204] showed E2F firefly, rep 1 = 80771; Renilla normaliser, rep 1 = 3885; inactive. CG13912 [DRSC08381] showed E2F firefly, rep 1 = 1.06e5; Renilla normaliser, rep 1 = 4644; inactive.

stumps [DRSC13045] showed E2F firefly, rep 1 = 84631; Renilla normaliser, rep 1 = 2752; inactive. After knock-down of stumps [DRSC15332] the results were E2F firefly, rep 1 = 91727; Renilla normaliser, rep 1 = 5448; inactive. stumps [DRSC17073] showed E2F firefly, rep 1 = 62413; Renilla normaliser, rep 1 = 3554; inactive. Taf3 [DRSC17170] scored E2F firefly, rep 1 = 1425; Renilla normaliser, rep 1 = 840; inactive. After knock-down of ATPsynbeta [DRSC17194] the results were E2F firefly, rep 1 = 59607; Renilla normaliser, rep 1 = 4432; inactive. CG8997 [DRSC01900] showed E2F firefly, rep 1 = 92304; Renilla normaliser, rep 1 = 4196; inactive.

Fkbp12 [DRSC07425] scored E2F firefly, rep 1 = 1.31e5; Renilla normaliser, rep 1 = 5570; inactive.

5 entries from above, arranged by “E2F firefly, rep 1”, high to low.
CG13912 [DRSC08381] → E2F firefly, rep 1 = 1.06e5; Renilla normaliser, rep 1 = 4644; activity call = inactive
stumps [DRSC15332] → E2F firefly, rep 1 = 91727; Renilla normaliser, rep 1 = 5448; activity call = inactive
stumps [DRSC13045] → E2F firefly, rep 1 = 84631; Renilla normaliser, rep 1 = 2752; activity call = inactive
stumps [DRSC17073] → E2F firefly, rep 1 = 62413; Renilla normaliser, rep 1 = 3554; activity call = inactive
Taf3 [DRSC17170] → E2F firefly, rep 1 = 1425; Renilla normaliser, rep 1 = 840; activity call = inactive

The list goes on:
CG14805 [DRSC18554] scored E2F firefly, rep 1 = 1.19e5; Renilla normaliser, rep 1 = 6366; inactive. After knock-down of Gyc89Db [DRSC15009] the results were E2F firefly, rep 1 = 76573; Renilla normaliser, rep 1 = 2740; inactive. Knock-down of CR11700 (retired record) [DRSC17794] resulted in: E2F firefly, rep 1 = 36051; Renilla normaliser, rep 1 = 5735; inactive. Rgl [DRSC11267] gave E2F firefly, rep 1 = 1.15e5; Renilla normaliser, rep 1 = 6051; inactive. With knock-down of Septin5 [DRSC06843] the results were E2F firefly, rep 1 = 2931; Renilla normaliser, rep 1 = 223; inactive. Against CG9689 [DRSC18440] the deposit lists E2F firefly, rep 1 = 8038; Renilla normaliser, rep 1 = 700; inactive.

Silencing of E(spl)malpha-BFM [DRSC16994] gave: E2F firefly, rep 1 = 61334; Renilla normaliser, rep 1 = 5131; inactive. For CG6180 [DRSC02937], the entry reads E2F firefly, rep 1 = 75033; Renilla normaliser, rep 1 = 3600; inactive. Depletion of Ced-12 [DRSC02840] came out at: E2F firefly, rep 1 = 1.15e5; Renilla normaliser, rep 1 = 4548; inactive. After knock-down of HSPBAP1 [DRSC14567], the screen gave E2F firefly, rep 1 = 1.29e5; Renilla normaliser, rep 1 = 5887; inactive. For Sirup [DRSC03031], the entry reads E2F firefly, rep 1 = 1.59e5; Renilla normaliser, rep 1 = 5608; inactive. CG13526 [DRSC04168] gave E2F firefly, rep 1 = 95420; Renilla normaliser, rep 1 = 4141; inactive.

For CG14866 [DRSC14989] the deposit lists E2F firefly, rep 1 = 1.20e5; Renilla normaliser, rep 1 = 5899; inactive. Depletion of mil [DRSC15696] gave: E2F firefly, rep 1 = 1.15e5; Renilla normaliser, rep 1 = 6199; inactive. For CG7084 [DRSC16194], the entry reads E2F firefly, rep 1 = 83765; Renilla normaliser, rep 1 = 4189; inactive.
